For at least one compound, name, drawing or mass did not settle the structure.
Columns and labels:
[1] = test system: E. coli (ATCC 8739); test: Membrane filtration (Milliflex funnel, Durapore membrane) bioburden test, growth on Soybean Casein Digest Agar; assay type: cell-based; conditions: ofloxacin 10 ml at 4 mg/mL filtered, six 100 mL rinses USP Fluid A, 20 to 60 cfu
[2] = test system: B. subtilis (ATCC 6633); test: Sterility testing in Steritest canisters, growth after antibiotic filtration; assay type: cell-based; conditions: ofloxacin 20 ml at 40 mg/mL filtered, three 100 mL rinses USP Fluid A, approx. 30 cfu

CC1COc2c(N3CCN(C)CC3)c(F)cc3c(=O)c(C(=O)O)cn1c23 (stereo not shown) [Ofloxacin, ofloxacin]
Result (growth of microorganism) ([1]; 0.5 M magnesium added to agar): Growth | Result (growth of microorganism) ([1]; divalent cation added to agar: None): No growth | Result (growth of microorganism) ([2]; 0.5M divalent cation added to broth): Growth | Result (growth of microorganism) ([2]; divalent cation added to broth: None): No growth

— US20100075368A1, “Media for recovery of microorganism in the presence of antibiotics” (Millipore Corporation, priority 2004, published 2010)
